This is an account of results in patent publication US4169150A, “Benzodiazepine derivatives and pharmaceutical compositions containing said derivatives” (Teijin Limited, priority 1975, dated 1979).

In the test the test system is mice. Kind of test: Motor incoordinating activity (rotating rod). To be noted: Mus musculus, 0.05 h, PO, 5.5 rpm, within 3 minutes, read-out: ED50 motor incoordination, rotating rod. In kind it is in vivo, mouse (ddY-type male mice). How it is done: In the following tests, the pharmacological actions of the compounds were tested by using six mice (ddY-type male mice) for each dosage level, and ED50 values were determined. In the determination of ED50 values, the dosages of the test compounds were increased or decreased by a common ratio of 3 as required, and 3 or 4 dosage levels were used. The calculation of the ED50 values was made on the basis of the Litchfield-Wilcoxon method [J. Pharmacol. Exp. Therap., 96, 99 (1949)].
(6) Motor incoordinating activity
Mice which could stay for more than 3 minutes on a rotating rod having a diameter of 3.0 cm and rotating at a speed of 5.5 rpm. The subjects were orally administered with the test compound, and then at intervals of 30 minutes, they were placed on the rotating rod. Examination was made as to whether they slipped down within 3 minutes.

Broadly, the ED50 is the dose at which the effect has come halfway, by size or by number of responders. As for `CN1C(=O)CN=C(c2ccccc2)c2cc(Cl)ccc21` [Diazepam, reference compound], the ED50 is 5.4 mg/kg.
